# Reference: PubChem BioAssay AID540275 (National Center for Advancing Translational Sciences (NCATS), 2011)
# Sequences of proteins named here, by UniProt entry; tags and fusion partners are left off.
# UniProt Q8NER1, whole entry, looked up: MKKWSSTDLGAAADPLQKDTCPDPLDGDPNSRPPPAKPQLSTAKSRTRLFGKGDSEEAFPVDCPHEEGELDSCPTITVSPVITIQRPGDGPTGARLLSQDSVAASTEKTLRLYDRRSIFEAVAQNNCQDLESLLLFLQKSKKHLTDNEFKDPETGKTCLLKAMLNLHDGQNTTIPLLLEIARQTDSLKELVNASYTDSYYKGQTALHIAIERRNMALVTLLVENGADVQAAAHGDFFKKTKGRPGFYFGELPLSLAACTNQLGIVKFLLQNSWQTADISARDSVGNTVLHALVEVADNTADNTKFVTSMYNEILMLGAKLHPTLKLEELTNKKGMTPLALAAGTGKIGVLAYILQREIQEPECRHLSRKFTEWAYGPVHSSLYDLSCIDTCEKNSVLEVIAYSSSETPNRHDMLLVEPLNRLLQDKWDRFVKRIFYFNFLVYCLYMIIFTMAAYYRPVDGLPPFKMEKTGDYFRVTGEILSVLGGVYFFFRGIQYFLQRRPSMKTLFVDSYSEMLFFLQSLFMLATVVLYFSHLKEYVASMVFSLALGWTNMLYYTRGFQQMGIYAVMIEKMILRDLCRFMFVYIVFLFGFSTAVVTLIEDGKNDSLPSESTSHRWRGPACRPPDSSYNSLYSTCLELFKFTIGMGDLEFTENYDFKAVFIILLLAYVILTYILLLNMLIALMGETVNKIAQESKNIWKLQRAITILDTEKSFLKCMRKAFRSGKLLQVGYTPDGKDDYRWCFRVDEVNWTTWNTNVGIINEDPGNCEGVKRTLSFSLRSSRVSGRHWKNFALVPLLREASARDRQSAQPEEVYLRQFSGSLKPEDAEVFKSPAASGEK
# Screen size: about 320,000 compounds; about 620 (0.19%) were called active. The inconclusive results got no clear call from the source; some entries with a clear call stand among them for comparison. Rule as the data show it: active = activation above about 80%; inconclusive = between about 30% and that limit; inactive = weaker than that.
# Target: Transient receptor potential cation channel subfamily V member 1 (Homo sapiens) (UniProt Q8NER1)
# Test: HTS Assay for Compounds that Act as Agonists of the Vanilloid Receptor 1; also: 0% is about no effect
# Details: TRPV1-expressing cells, Fluo-8 calcium influx, agonist mode; at 8.33 µM, stronger effect = higher value
# How it was run: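 Cells expressing TRPV1 were dye-loaded with Fluo-8 and read kinetically: 10 s baseline, 3 min after compound (agonist portion), then 2 min after EC20 capsaicin (allosteric enhancer portion). Calcium-bound dye fluorescence at 480/520 nm.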
row,SMILES,activation
1,COc1ccc(C(=O)Oc2ccc(Br)cc2C(=S)N2CCOCC2)cc1,inactive: 3.69%
2,CC1CCCN(c2ccc(C(=O)NCc3cccs3)cn2)C1 (centres undefined),inconclusive: 44.3%
3,COc1ccc(CCNC(=S)NCCc2c[nH]c3ccccc23)cc1,inconclusive: 50.2%
4,C/C(=N\NC(N)=S)C1=CCC2C3CC[C@H]4CC(O)CC[C@]4(C)C3CC[C@]12C (some centres undefined),inactive: -1.43%
5,CCc1cccc(CC)c1NC(=O)C1CCN(C(=O)c2ccco2)CC1,inactive: 1.18%
6,COc1cccc(C(=O)Oc2ccccc2/C=C\C(=O)c2cc3ccccc3o2)c1,inconclusive: 33.7%
7,CC(=O)N1CCN(C(=O)C2(NC(=O)Nc3cccc(F)c3)CCCCC2)CC1,inactive: -2.54%
8,CC(C)(C)C1=CC(O)(c2ccccc2)C=C(C(C)(C)C)C1=O,inconclusive: 30.6%
9,Cc1cc(NC(=O)COc2ccccc2)ccc1Cl,inconclusive: 54.3%
10,COc1ccc(CNC(=O)C(C)OC(=O)c2cccs2)cc1 (centres undefined),inconclusive: 76.1%
11,Nc1nonc1C(=O)NCCNCc1ccccc1OCc1ccccc1F,inconclusive: 31.1%
12,Cc1nc(-c2ccccn2)sc1C(=O)Nc1ccc(F)cc1,inconclusive: 73.1%
13,O=C(Nc1ccc(Cl)cc1)c1nc[nH]c1C(=O)NCc1ccccc1,inconclusive: 30.1%
14,CCCc1c(C(=O)Nc2ccc(F)cc2F)cnn1-c1ccccc1,inconclusive: 54%
15,COc1ccc(-c2noc(N3CCC(C(=O)NCc4ccc(F)cc4)CC3)n2)cc1,inconclusive: 36.6%
16,O=C1c2cccnc2C(Nc2ccc(Cl)cc2)N1Cc1cccs1 (centres undefined),inconclusive: 60.8%
17,COc1cc(/C=N/Nc2nc(N3CCCC3)nc(N3CCCC3)n2)ccc1O,inconclusive: 40.6%
18,N=c1oc2c3c4c(cc2cc1C(=O)Nc1ccccc1)CCCN4CCC3,active: 83.7%
19,CCCCn1c(O)c(N=Nc2ccccc2O)c2ccccc21,inconclusive: 34.4%
20,COc1ccc(CCNc2cc(N3CCN(C(=O)c4ccccc4F)CC3)ccc2[N+](=O)[O-])cc1OC,inactive: -1.2%
21,CN1OCC(S(=O)(=O)c2ccccc2)C1c1ccccc1 (centres undefined),inactive: -3.31%
22,CC(C)CC(=O)C1CCCN(C(=O)c2ccc3oc(Cc4ccccc4)nc3c2)C1 (centres undefined),inconclusive: 45.9%
23,O=C(CSCc1ccc(Cl)cc1)Nc1ccc(S(=O)(=O)N2CCCCCC2)cc1,inconclusive: 38.4%

row,SMILES,activation
1,O=C(Nc1ccc(N2CCOCC2)nc1N1CCOCC1)c1cccc(C(F)(F)F)c1,inactive: 17.5%
2,O=P(c1ccccc1)(c1ccccc1)c1cc(Br)cc(Br)c1OCCO,inconclusive: 35.3%
3,CCn1c(C)c(C)c2cc(C(=O)Nc3cccc(Cl)c3)ccc21,inconclusive: 51.1%
4,COc1ccc(CC(=O)O/N=C(\N)Cc2ccc(OC)c(OC)c2)cc1,inconclusive: 54.2%
5,CCn1cc(C(=O)NCCc2ccccc2)c(=O)c2cc(S(=O)(=O)N(C)C)ccc21,inconclusive: 42.2%
6,O=C(Nc1ccccc1)Nc1csc2ccccc12,inconclusive: 44%
7,O=C(Nc1ccccn1)c1cc(-c2cccc(Cl)c2)nc2ccccc12,inconclusive: 30.5%
8,O=C(c1cccs1)N1CCN=C1SCc1ccccc1,inconclusive: 37.2%
9,OCCN(CCCn1c(-c2ccncc2)nc2ccccc21)c1nc(CN2CCCCC2)cs1,inactive: 2.95%
10,O=S(=O)(NCC1CCCO1)c1ccc(-c2ccc(S(=O)(=O)NCC3CCCO3)cc2)cc1 (centres undefined),inactive: 2.93%
11,COc1ccccc1CNC(=O)C(CC(C)C)NC(=O)C1CCC(C)CC1 (centres undefined),inconclusive: 68.4%
12,CCCc1ccc(S(=O)(=O)N2CCN(Cc3ccco3)CC2)cc1,inconclusive: 37.1%
13,Cc1cccc(C)c1NC(=S)N(CCN(C)C)Cc1cccs1,inactive: 1.03%
14,O=C(CS(=O)(=O)c1ccc(F)cc1)N1CCN(c2ccccc2)CC1,inconclusive: 35.2%
15,CC(C(=O)NCCC1=CCCCC1)c1ccc([N+](=O)[O-])cc1 (centres undefined),inconclusive: 72.1%
16,Cc1ccc2c(C)c(C(=O)N3CCN(Cc4ccc5c(c4)OCO5)CC3)oc2c1C,inconclusive: 35%
17,O=C(c1ccccc1Oc1ccccc1)N1CCN(c2ccccc2F)CC1,inconclusive: 41.1%
18,CS(=O)(=O)N1CCN(C(=S)NCc2ccc(Cl)cc2)CC1,inconclusive: 48.6%
19,O=S(=O)(Nc1ccc(Br)cc1)c1cccc(NC(=S)NCCN2CCOCC2)c1,inactive: 0.0359%
20,CCc1cccc(CC)c1NC(=S)NCCc1c(C)[nH]c2ccc(C)cc12,inactive: 16.3%
21,CSc1nc2cc(Oc3cccc(Cl)c3Cl)c(Cl)cc2[nH]1,inconclusive: 32.8%
22,CCOC(=O)c1ccc(NC(=S)NCCc2ccc(F)cc2)cc1,inconclusive: 30.7%
23,CC(=O)Nc1ccc(Sc2ncccc2C(=O)Nc2ccc(F)cc2)cn1,inactive: 10.9%

# Exported bar-delimited: 6 of the compounds above
row | SMILES | activation
12 | CCCc1ccc(S(=O)(=O)N2CCN(Cc3ccco3)CC2)cc1 | inconclusive: 37.1%
13 | Cc1cccc(C)c1NC(=S)N(CCN(C)C)Cc1cccs1 | inactive: 1.03%
14 | O=C(CS(=O)(=O)c1ccc(F)cc1)N1CCN(c2ccccc2)CC1 | inconclusive: 35.2%
15 | CC(C(=O)NCCC1=CCCCC1)c1ccc([N+](=O)[O-])cc1 (centres undefined) | inconclusive: 72.1%
16 | Cc1ccc2c(C)c(C(=O)N3CCN(Cc4ccc5c(c4)OCO5)CC3)oc2c1C | inconclusive: 35%
17 | O=C(c1ccccc1Oc1ccccc1)N1CCN(c2ccccc2F)CC1 | inconclusive: 41.1%

# Going on with the list:

row,SMILES,activation
1,COc1ccc(OC)c2c1C(=O)c1ccccc1C2=O,inactive: 5.01%
2,COc1ccc(NC(=O)Nc2ccc(F)cc2)cn1,inconclusive: 53.5%
3,CC1CCN(c2ccc(S(=O)(=O)N3CCC(C)CC3)cc2N)CC1,inconclusive: 34%
4,O=C(Nc1ccncc1)Nc1ccccc1Cl,inconclusive: 44.3%
5,CC(=O)Oc1ccc2c(c1)Oc1cc(OC(C)=O)ccc1C21OC(=O)c2ccccc21,active: 140%
6,CC1CCC(n2c(=S)[nH]c3ccccc3c2=O)CC1 (centres undefined),inactive: -6.26%
7,O=C(C1=C[C@@H](c2ccc(C(F)(F)F)cc2)C[C@@H](OCc2ccc(CO)cc2)O1)N1CCN(Cc2ccccc2)CC1,inconclusive: 64.1%
8,CC(OC(=O)/C=C/c1ccccc1)C(=O)Nc1ccc(C(N)=O)cc1 (centres undefined),inconclusive: 44.2%
9,Cc1c(/C=C/C(=O)c2ccc(C(C)C)cc2)cnn1C,inconclusive: 45.8%
10,CCOC(=O)[C@H]1[C@H]2COc3ccc(Cl)cc3[C@@H]2N2C(=O)CN(Cc3ccc(C)cc3)C(=O)[C@@]12C,inconclusive: 30.2%
11,CCOc1ccccc1CN1CCNC(=O)C1CC(=O)N(C)Cc1cnccn1 (centres undefined),inactive: -0.407%
12,CC(=O)NCCc1c(C)n(Cc2ccccc2)c2ccccc12,inconclusive: 75.1%
13,COC(=O)C(Cc1csc2ccc(Cl)cc12)NC(=O)c1ccc(Cl)cc1 (centres undefined),inactive: 22.3%
14,Cc1cccc(NC(=O)c2cc(-c3ccccn3)nc3ccccc23)c1C,inconclusive: 46.2%
15,Cc1ccccc1OCc1nc2ccccc2c(=O)n1/N=C/c1cn[nH]c1-c1ccc(Br)cc1,inconclusive: 36%
16,COc1ccc2c(c1)sc1nc(-c3ccccc3)cn12,inconclusive: 38.7%
17,O=[N+]([O-])c1ccc(C(O)C(CO)NC(=S)Nc2ccccc2)cc1 (centres undefined),inactive: -0.474%
18,c1cncc(-c2nc(NCc3ccc4c(c3)OCO4)c3ccccc3n2)c1,inactive: 2.56%
19,COc1cc(OC)c(-c2noc(C(=O)OC(C)(C)C)c2C(=O)OC(C)(C)C)c(OC)c1,inconclusive: 30.8%
20,O=C(Nc1ccc([N+](=O)[O-])cc1)C1CC1(c1ccccc1)c1ccccc1 (centres undefined),inconclusive: 34.2%
21,O=C(CN1CCN(S(=O)(=O)N2CCCCCC2)CC1)Nc1ccc(F)cc1,inconclusive: 36.9%
22,O=C(CSc1nc2ccccc2c2c1CCCC2)N1CCOCC1,inconclusive: 51.8%
23,O=C(Nc1ccc(S(=O)(=O)N2CCCC2)cc1)c1cc(=O)c2ccccc2o1,inconclusive: 34.7%

row,SMILES,activation
1,C=CCN1C(=O)/C(=C/C(=O)OC)S/C1=N\NC(=O)c1ccccc1,inactive: 3.04%
2,O=C(CCC(=O)OCc1ccc(Cl)cc1)Nc1ccccc1,inconclusive: 32.5%
3,COc1cccc(CC(Cc2nc3ccccc3[nH]2)c2nc3ccccc3[nH]2)c1 (centres undefined),inconclusive: 57.4%
4,CSc1ccc(-c2cc(=O)c3ccccc3o2)cc1,inconclusive: 31.7%
5,Cc1ccc(N2CCN(S(=O)(=O)c3ccc(-n4cnnn4)cc3)CC2)c(C)c1,inconclusive: 38.8%
6,CC1CCN(S(=O)(=O)c2ccc(NC(=O)c3ccco3)cc2)CC1,inconclusive: 67.8%
7,O=C(Nc1ccc(F)cc1)c1csc(Cc2ccccc2)n1,inconclusive: 50%
8,S=C1NC2(CCCCC2)N=C1c1ccccc1,inactive: 2.47%
9,C=C1C[C@H](O)[C@@H]2[C@H](OC(=O)[C@H]2C)[C@H]2[C@H](C)[C@@H](O)C[C@@H]12,inactive: 1.13%
10,CC(C)(C)SCCNC(=O)CN(c1ccc(F)cc1)S(=O)(=O)c1ccccc1,inconclusive: 46.5%
11,CC(NC(=O)c1ccc(F)cc1F)C1CC2CCC1C2 (centres undefined),inconclusive: 32.1%
12,CCOc1ccccc1N1CCN(C(=O)Nc2cccc(Cl)c2)CC1,inconclusive: 43.8%
13,Cc1noc(C)c1COc1ccccc1C(=O)NCCc1ccc(S(N)(=O)=O)cc1,inactive: -1.86%
14,O=C(NC(=S)Nc1ccc(Cc2ccncc2)cc1)c1ccccc1F,inconclusive: 44.3%
15,O=C(Nc1ccc2ccccc2c1)C(c1ccccc1)C1CCCC1 (centres undefined),inconclusive: 30.3%
16,CCc1ccc(S(=O)(=O)NCCc2csc(C)n2)s1,inactive: -1.56%
17,CN(C)CCCN(Cc1ccccc1)C(=S)Nc1cccc(C(F)(F)F)c1,inactive: 0.644%
18,Brc1ccc(-c2cn3ccccc3n2)cc1,inconclusive: 39.8%
19,Cc1ccc(N2C(=O)c3ccc(C(=O)Nc4cccnc4)cc3C2=O)c(C)c1,inconclusive: 46%
20,N#CC1CC(c2ccccc2)Nc2cc(Cl)ccc2N1 (centres undefined),inconclusive: 66.5%
